Measured values reported in the supplement of paper PMC8960247.
Where a name gives a salt, the structure may show the parent alone. Single values of this set are uncertain.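 The cells are immortalized human renal angiomyolipoma cells carrying an empty vector, so TSC2 stays lost. Viability was read by a luminescent ATP assay and normalized to vehicle-treated wells on each plate, in low-serum medium where TSC2-rescued cells do not grow.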

Test system: 621-102 (TSC2-deficient)
Experiment: relative viability vs DMSO (fraction); higher = less cytotoxic
Settings: serum: 0.1% FBS, 72 h

| SMILES | relative viability (0.0128 nM) | relative viability (0.064 nM) | relative viability (0.32 nM) | relative viability (1.6 nM) | relative viability (8 nM) | relative viability (40 nM) | relative viability (200 nM) | relative viability (1000 nM) | relative viability (5000 nM) |
| --- | --- | --- | --- | --- | --- | --- | --- | --- | --- |
| CNCCC(Oc1ccc(C(F)(F)F)cc1)c1ccccc1 (stereo not drawn) [Fluoxetine HCl] | 0.676 | 0.674 | 0.734 | 0.797 | 0.786 | 0.753 | 0.781 | 0.7 | 0.776 |
| C[C@H](Cn1cnc2c(N)ncnc21)OCP(=O)(O)O [Tenofovir] | 0.724 | 0.566 | 0.61 | 0.586 | 0.507 | 0.528 | 0.536 | 0.504 | 0.546 |
| CO[C@H]1C[C@@H]2CC[C@@H](C)[C@@](O)(O2)C(=O)C(=O)N2CCCC[C@H]2C(=O)O[C@H]([C@H](C)C[C@@H]2CC[C@@H](O)[C@H](OC)C2)CC(=O)[C@H](C)/C=C(\C)[C@@H](O)[C@@H](OC)C(=O)[C@H](C)C[C@H](C)/C=C/C=C/C=C/1C [Rapamycin (Sirolimus)] | 0.856 | 0.673 | 0.378 | 0.299 | 0.321 | 0.222 | 0.173 | 0.147 | 0.186 |
| COc1ccc(-n2nc(C(N)=O)c3c2C(=O)N(c2ccc(N4CCCCC4=O)cc2)CC3)cc1 [Apixaban] | 0.694 | 0.722 | 0.802 | 0.848 | 0.726 | 0.788 | 0.726 | 0.591 | 0.346 |
| Cc1cc(C(C)(C)C)c(O)c(C)c1CC1=NCCN1 [Oxymetazoline hydrochloride] | 0.781 | 0.686 | 0.608 | 0.225 | 0.635 | 0.643 | 0.563 | 0.596 | 0.601 |
| C[C@H]1COC2=C1C(=O)C(=O)c1c2ccc2c1CCCC2(C)C [Cryptotanshinone] | 1.27 | 1.46 | 1.61 | 1.52 | 1.13 | 0.861 | 0.968 | 0.556 | 0.0523 |
| Cc1cc(Cl)ccc1OCCCC(=O)NO [Droxinostat] | 0.788 | 0.795 | 0.734 | 0.669 | 0.634 | 0.67 | 0.629 | 0.604 | 0.562 |
| c1ccc2c(-c3cnn4cc(-c5ccc(N6CCNCC6)cc5)cnc34)ccnc2c1 | 1.22 | 1.2 | 1.15 | 1.02 | 0.841 | 0.161 | 0.169 | 0.0639 | 0.00807 |
| Cn1c(CNc2ccc(C(=N)N)cc2)nc2cc(C(=O)N(CCC(=O)O)c3ccccn3)ccc21 [BIBR 953] | 0.814 | 0.822 | 0.724 | 0.798 | 0.795 | 0.846 | 0.72 | 0.598 | 0.663 |
| O=C(NOCC(O)CO)c1cc(Br)c(F)c(F)c1Nc1ccc(I)cc1F (stereo not drawn) | 0.794 | 0.845 | 0.814 | 0.844 | 0.815 | 0.806 | 0.854 | 0.618 | 0.446 |
| NC(=O)c1ccc(-c2nc(-c3ccccn3)c(-c3ccc4c(c3)OCO4)[nH]2)cc1 | 0.852 | 0.892 | 0.836 | 0.856 | 0.791 | 0.818 | 0.814 | 0.831 | 0.631 |
| CS(=O)(=O)c1ccc(C(=O)Nc2ccc(Cl)c(-c3ccccn3)c2)c(Cl)c1 [GDC-0449] | 0.84 | 0.969 | 0.848 | 0.849 | 0.813 | 0.783 | 0.764 | 0.703 | 0.523 |
| C/C(=C\c1csc(C)n1)[C@@H]1C[C@@H]2O[C@]2(C)CCC[C@H](C)[C@H](O)[C@@H](C)C(=O)C(C)(C)[C@@H](O)CC(=O)O1 [Epothilone B (EPO906, Patupilone)] | 1.15 | 0.88 | 0.0632 | 0.0136 | 0.0115 | 0.0109 | 0.0118 | 0.0111 | 0.0156 |
| CNC(=O)c1cc(COc2nnc(Nc3ccc(Cl)cc3)c3ccoc23)ccn1 [Telatinib] | 1.01 | 0.943 | 0.896 | 0.856 | 0.822 | 0.858 | 0.792 | 0.8 | 0.0192 |
| CC(=O)O[C@H]1CC[C@@]2(C)C(=CC[C@@H]3[C@@H]2CC[C@]2(C)C(c4cccnc4)=CC[C@@H]32)C1 [Abiraterone Acetate] | 0.622 | 0.692 | 0.73 | 0.686 | 0.618 | 0.629 | 0.596 | 0.307 | 0.029 |
| NC(=O)c1cccc(-c2cccc(OC(=O)NC3CCCCC3)c2)c1 [URB597] | 0.922 | 0.888 | 0.862 | 0.823 | 0.771 | 0.872 | 0.865 | 0.701 | 0.74 |
| CC[C@H](CO)Nc1nc(NCc2ccccc2)c2ncn(C(C)C)c2n1 [Roscovitine (Seliciclib,CYC202)] | 0.939 | 0.922 | 0.961 | 0.691 | 0.879 | 0.962 | 0.806 | 0.839 | 0.637 |
| N#C/C(=C\c1ccc(O)c(O)c1)C(=O)NCc1ccccc1 [AG-490] | 0.715 | 0.809 | 0.774 | 0.801 | 0.774 | 0.722 | 0.675 | 0.666 | 0.565 |
| Nc1nc(N)c2nc(-c3cccc(O)c3)c(-c3cccc(O)c3)nc2n1 [TG100-115] | 1.22 | 1.53 | 1.42 | 1.09 | 0.557 | 0.851 | 0.931 | 1.13 | 0.587 |
| COCCCOc1cc(C[C@@H](C[C@H](N)[C@@H](O)C[C@H](C(=O)NCC(C)(C)C(N)=O)C(C)C)C(C)C)ccc1OC [Aliskiren Hemifumarate] | 0.837 | 0.674 | 0.7 | 0.774 | 0.65 | 0.694 | 0.703 | 0.665 | 0.515 |
| O=c1n(CCCN2CCN(c3cccc(Cl)c3)CC2)nc2ccccn12 [Trazodone HCl] | 1.01 | 1.05 | 0.991 | 0.907 | 0.581 | 0.644 | 0.504 | 0.485 | 0.637 |
| COc1ccccc1N1CCN(CC(O)COc2cccc3ccccc23)CC1 (stereo not drawn) [Naftopidil] | 0.603 | 0.561 | 0.544 | 0.63 | 0.594 | 0.558 | 0.545 | 0.49 | 0.317 |

Structures above that have fluorine:

| SMILES | relative viability (0.0128 nM) | relative viability (0.064 nM) | relative viability (0.32 nM) | relative viability (1.6 nM) | relative viability (8 nM) | relative viability (40 nM) | relative viability (200 nM) | relative viability (1000 nM) | relative viability (5000 nM) |
| --- | --- | --- | --- | --- | --- | --- | --- | --- | --- |
| CNCCC(Oc1ccc(C(F)(F)F)cc1)c1ccccc1 (stereo not drawn) [Fluoxetine HCl] | 0.676 | 0.674 | 0.734 | 0.797 | 0.786 | 0.753 | 0.781 | 0.7 | 0.776 |
| O=C(NOCC(O)CO)c1cc(Br)c(F)c(F)c1Nc1ccc(I)cc1F (stereo not drawn) | 0.794 | 0.845 | 0.814 | 0.844 | 0.815 | 0.806 | 0.854 | 0.618 | 0.446 |
